Patent US20250127942A1 (MEDICOVESTOR, published 2025)
No constants are given. Whether binding was seen depends on the method and setting. Some entries that bind do so weakly or less than the wild type. For some assays here: Sequences can lack the tags named with a protein.

How the values were obtained:
[1] = biological target: T1, recombinant Sp17 protein (human) (UniProt Q15506); assay: western blot of Sp17 protein
T1 sequence (looked up): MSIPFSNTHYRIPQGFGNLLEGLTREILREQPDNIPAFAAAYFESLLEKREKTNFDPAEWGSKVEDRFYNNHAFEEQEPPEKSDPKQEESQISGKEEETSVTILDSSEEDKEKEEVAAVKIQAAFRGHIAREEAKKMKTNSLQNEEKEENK

[2] = biological target: T1, recombinant Sp17 protein (human); assay: western blot of recombinant Sp17 protein
[3] = biological target: T1, recombinant Sp17 protein (human); assay: western blot of Sp17 protein (lanes 1-3) after SDS-PAGE, detected with chAB2
[4] = biological target: T2, recombinant 6His-Sp17 protein (human, UniProt Q15506 1-151, limits assumed); assay: surface plasmon resonance (Biacore T200), 6His-Sp17 at 300, 100, 50, 25, 12.5 and 6.25 nM according to the legend
T2 construct: The species is not restated for this recombinant protein; not shown: 6His tag
T2 sequence (looked up): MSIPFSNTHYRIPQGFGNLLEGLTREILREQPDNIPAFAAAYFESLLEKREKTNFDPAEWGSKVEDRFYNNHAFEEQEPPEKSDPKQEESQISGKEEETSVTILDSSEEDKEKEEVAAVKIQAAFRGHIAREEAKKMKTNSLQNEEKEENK

[5] = biological target: T1, recombinant Sp17 protein (human); assay: ELISA of phage display clones
[6] = biological target: T1, recombinant Sp17 protein (human); assay: western blot
[7] = biological target: T1, recombinant Sp17 protein (human); assay: western blot of Sp17 protein and a tumor cell lysate
[8] = biological target: T1, recombinant Sp17 protein (human); assay: western blot of Sp17 protein (lane 1) after SDS-PAGE, detected with SP17-AB2

B1: mouse-human chimeric anti-Sp17 IgG2a/kappa monoclonal antibody chAB2 (antibody, V domains shown)
VH: QVQLQQSGAEVKKPGSSVKVSCKASGGTFSSYAISWVRQAPGQGLEWMGRIIPILGIANYAQKFQGRVTITADKSTSTAYMELSSLRSEDTAVYYCARPSEEVVAAYGAFDIWGQGTTVTVSS
VL: EIVLTQSPLSLPVRPGEPASISCRASQSLLRSDGFNYLDWYLQKPGQSPQLLVYLGSNRASGVPDRFSGSGSGTDFTLKISRVEAEDVGVYYCMQAVQTPYIFGQGTKLEIK
notes: also called anti-Sp17 antibody chAB2; chimeric monoclonal antibody (chAB2); not shown: mouse IgG2a heavy chain constant region; mouse kappa light chain constant region
- binding [1]: binds
- binding [2]: binds
- binding [3]: binds
- binding [4]: binds

B2: best-performing anti-Sp17 Fab clone from the human Fab phage display library (Fab, V domains shown)
VH: QVQLQQSGAEVKKPGSSVKVSCKASGGTFSSYAISWVRQAPGQGLEWMGRIIPILGIANYAQKFQGRVTITADKSTSTAYMELSSLRSEDTAVYYCARPSEEVVAAYGAFDIWGQGTTVTVSS
VL: EIVLTQSPLSLPVRPGEPASISCRASQSLLRSDGFNYLDWYLQKPGQSPQLLVYLGSNRASGVPDRFSGSGSGTDFTLKISRVEAEDVGVYYCMQAVQTPYIFGQGTKLEIK
- binding [5]: binds

B3: human anti-Sp17 IgG4/kappa monoclonal antibody SP17-AB2 (antibody, V domains shown)
VH: QVQLQQSGAEVKKPGSSVKVSCKASGGTFSSYAISWVRQAPGQGLEWMGRIIPILGIANYAQKFQGRVTITADKSTSTAYMELSSLRSEDTAVYYCARPSEEVVAAYGAFDIWGQGTTVTVSS
VL: EIVLTQSPLSLPVRPGEPASISCRASQSLLRSDGFNYLDWYLQKPGQSPQLLVYLGSNRASGVPDRFSGSGSGTDFTLKISRVEAEDVGVYYCMQAVQTPYIFGQGTKLEIKR
- binding [6]: binds
- binding [7]: binds
- binding [8]: binds
